Measurements: patent US12527788B2, “Defining RNA-small molecule affinity landscapes enables design of a small molecule inhibitor of an oncogenic non-coding RNA” (University of Florida Research Foundation, Incorporated, priority 2017, dated 2026)

Each molecule was assayed on RNA motifs of 3×3 ILL (assay: HiT-StARTS statistical analysis (Zobs) of RNA-seq of 2DCS selection). Conditions: 3×3 ILL selection.
Format: binding

SMILES	Range of Zobs for Binders
CC(C)c1cc(-c2nc3ccc(-c4ccc(N5CCN(C)CC5)cc4)cc3[nH]2)cc(C(C)C)c1OCCCC(=O)NCCCN=[N+]=[N-] [Compound 3]	12-29
CN1CCN(c2ccc(-c3ccc4nc(-c5ccc(OCCCC(=O)NCCCN=[N+]=[N-])cc5)[nH]c4c3)cc2)CC1 [Compound 1]	8-72
Cc1cc(-c2nc3ccc(-c4ccc(N5CCN(C)CC5)cc4)cc3[nH]2)cc(C)c1OCCCC(=O)NCCCN=[N+]=[N-] [Compound 2]	8-44
CN1CCN(c2ccc(-c3ccc4nc(-c5cc(C(C)(C)C)c(OCCCC(=O)NCCCN=[N+]=[N-])c(C(C)(C)C)c5)[nH]c4c3)cc2)CC1 [Compound 4]	7-29
